PubChem BioAssay AID504793 | Drosophila RNAi Screening Center | 2011
Test: 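Whole-genome screen for parts of the DNA damage checkpoint at G2/M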 (primary screen). Cells: Drosophila S2R+ cells. Knock-down reagent: long dsRNA against Drosophila genes, about 0.25 µg dsRNA per well. Time to read-out: 4 days of dsRNA, then 4 hours of drug before read-out. Treatment: doxorubicin 0.5 µM for 4 hours to cause double-strand breaks, in cells also given a low, harmless dose of dsRNA against nbs to sensitise the assay. Detection: 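Mitotic index as the number of phospho-histone H3-positive cells in each well following doxorubicin, given as raw counts without normalisation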. Reading the numbers: mitotic cells: higher = more cells in mitosis, weaker G2 arrest. Active means: 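a call needs confirmation in secondary tests, with other dsRNAs and a check of mitotic timing without damage, not just a high primary count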. Calls: active = confirmed in follow-up tests; inactive = not confirmed.
The deposit covers about 23,000 reagents; shown is a random part of those that have a named target and a result. Over the whole deposit, 62 (0.27%) got an active call. 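Calls come from follow-up tests whose scores are not deposited, so confirmed genes may have low counts here; counts are not normalised per plate.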 Raw values are not corrected between plates.

gene,amplicon,"mitotic cells, replicate 1",outcome
Iyd (GeneID 39242),DRSC10614,2,inactive
Iyd (GeneID 39242),DRSC10615,2,inactive
CG11970 (GeneID 41072),DRSC14157,3,inactive
Nubp1 (GeneID 35000),DRSC02639,2,inactive
eIF4E7 (GeneID 31059),DRSC17782,20,inactive
eIF4E7 (GeneID 31059),DRSC18623,9,inactive
CG13427 (GeneID 37316),DRSC06389,6,inactive
CG8958 (GeneID 32575),DRSC20134,10,inactive
CG8958 (GeneID 32575),DRSC29479,4,inactive
l(1)G0004 (GeneID 33033),DRSC20486,5,inactive
GATAe (GeneID 41945),DRSC23209,20,inactive
Elo68alpha (GeneID 317841),DRSC22725,10,inactive
CR9337 (GeneID 3885658),DRSC03212,8,inactive
CR9337 (GeneID 3885658),DRSC29798,27,inactive
Gp210 (GeneID 35512),DRSC04861,5,inactive
Gp210 (GeneID 35512),DRSC04900,6,inactive
ORY (GeneID 3355174),DRSC22883,5,inactive
oys (GeneID 36045),DRSC05203,13,inactive
oys (GeneID 36045),DRSC06751,3,inactive
oys (GeneID 36045),DRSC26939,7,inactive
AstA-R2 (GeneID 43393),DRSC14171,5,inactive
AstA-R2 (GeneID 43393),DRSC24820,6,inactive
CG32027 (retired record) (GeneID 317830),DRSC09571,12,inactive
bys (GeneID 31701),DRSC18748,6,inactive
bys (GeneID 31701),DRSC29013,3,inactive
CG4332 (GeneID 32267),DRSC19890,16,inactive
CG17746 (GeneID 38400),DRSC08521,8,inactive
CG17746 (GeneID 38400),DRSC23333,6,inactive
Bsg (GeneID 318841),DRSC01010,4,inactive
Bsg (GeneID 318841),DRSC01011,4,inactive
ACXD (GeneID 38284),DRSC07843,5,inactive
ACXD (GeneID 38284),DRSC23762,1,inactive
CG11906 (GeneID 37209),DRSC06096,10,inactive
CG4949 (GeneID 32691),DRSC19926,16,inactive
Cyp12a4 (GeneID 42294),DRSC16620,8,inactive
Cyp12a4 (GeneID 42294),DRSC24072,5,inactive
Alp4 (GeneID 43671),DRSC14116,11,inactive
CG11686 (GeneID 50024),DRSC14350,8,inactive
CG3107 (GeneID 35475),DRSC04888,12,inactive
wdb (GeneID 43312),DRSC14163,4,inactive
HINT1 (GeneID 33471),DRSC26502,8,inactive
Prp19 (GeneID 37123),DRSC07434,5,inactive
Prp19 (GeneID 37123),DRSC23905,2,inactive
CG3184 (GeneID 31608),DRSC18289,3,inactive
CG6144 (GeneID 34443),DRSC02934,10,inactive
CG6106 (GeneID 32816),DRSC19971,17,inactive
CG6106 (GeneID 32816),DRSC29276,,inactive
naz (GeneID 42204),DRSC14790,12,inactive
naz (GeneID 42204),DRSC16199,5,inactive
Inx3 (GeneID 44266),DRSC14857,2,inactive
Inx3 (GeneID 44266),DRSC24037,11,inactive
CG30046 (GeneID 36334),DRSC06691,4,inactive
CG31294 (GeneID 318666),DRSC22217,7,inactive
CG31294 (GeneID 318666),DRSC26865,6,inactive
CG17917 (GeneID 40778),DRSC12570,6,inactive
drn (GeneID 41114),DRSC15147,6,inactive
colt (GeneID 33470),DRSC00808,6,inactive
colt (GeneID 33470),DRSC29025,5,inactive
mRpL46 (GeneID 38230),DRSC08391,7,inactive
CG42366 (GeneID 34319),DRSC02760,3,inactive
CG42366 (GeneID 34319),DRSC23297,11,inactive
CG5645 (GeneID 39382),DRSC10532,4,inactive
CG8516 (GeneID 41206),DRSC16437,5,inactive
RpS13 (GeneID 34149),DRSC03419,,inactive
RpS13 (GeneID 34149),DRSC28558,1,inactive
CG17855 (GeneID 34269),DRSC02638,5,inactive
Eglp3 (GeneID 37738),DRSC04293,1,inactive
Eglp3 (GeneID 37738),DRSC25630,8,inactive
CG9933 (GeneID 34700),DRSC03276,4,inactive
CG9933 (GeneID 34700),DRSC29443,9,inactive
CG18467 (GeneID 36958),DRSC06758,7,inactive
hiro (GeneID 38083),DRSC08564,2,inactive
hiro (GeneID 38083),DRSC29780,6,inactive
CG12716 (GeneID 32248),DRSC19493,8,inactive
CG12716 (GeneID 32248),DRSC28802,9,inactive
